Test results: PubChem BioAssay AID1347072 (National Center for Advancing Translational Sciences (NCATS), 2019)
The whole screen tested about 44,000 compounds, of which fewer than 10 were called active. This list was built around the results that the source calls inconclusive (neither active nor inactive); the mix of calls is not that of the screen. Calls come from the whole dose curve; as a rule, active = well fitted curve in the direction sought with a large enough effect; inconclusive = small, poorly fitted or top-dose-only effect, or another doubt; inactive = no such curve, though single readings can be large or run the other way. Where the call is inconclusive, the potency comes from a doubtful curve fit.

By UniProt entry, the sequences of proteins in these tests, tags left out. Where a name states a change or a piece, a line headed by the entry shows the natural chain unless it says otherwise.
UniProt P51570: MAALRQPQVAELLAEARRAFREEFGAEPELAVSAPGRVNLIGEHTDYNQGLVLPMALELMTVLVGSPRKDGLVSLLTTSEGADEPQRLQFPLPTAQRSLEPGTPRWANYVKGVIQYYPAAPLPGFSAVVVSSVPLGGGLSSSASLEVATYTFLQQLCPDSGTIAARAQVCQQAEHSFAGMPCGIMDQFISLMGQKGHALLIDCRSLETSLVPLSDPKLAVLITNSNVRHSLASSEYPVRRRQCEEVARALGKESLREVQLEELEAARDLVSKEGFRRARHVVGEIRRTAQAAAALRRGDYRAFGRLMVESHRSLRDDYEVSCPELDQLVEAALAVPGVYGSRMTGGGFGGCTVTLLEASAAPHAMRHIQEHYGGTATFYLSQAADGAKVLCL

The compounds below were run against Galactokinase (Homo sapiens) (UniProt P51570) (assay: qHTS Assay for Inhibitors of Human Galactokinase (GALK): NCGC Sytravon Library Screen). Conditions: recombinant GALK, Kinase-Glo ATP luminescence, 1 h; series mostly up to 57.5 µM.
In short: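 5 nM GALK with 35 µM ATP and 100 µM galactose in HEPES pH 8.0, MgCl2, NaCl, DTT, BSA; 1 h RT reaction, remaining ATP detected by Kinase-Glo Plus luminescence after 10 min; qHTS concentration series.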

Row | Compound | Potency
1 | O=C(COc1ccccc1)Nc1ccc2nc(SCCOc3ccccc3)sc2c1 | inactive
2 | Cc1cc(C)c2oc(-c3cccc(NC(=O)COc4ccc([N+](=O)[O-])cc4)c3)nc2c1 | inactive
3 | Cc1ccc(Cl)cc1N1CCN(C(=O)c2ccc(CS(=O)(=O)c3ccccc3C)o2)CC1 | inactive
4 | Cc1cc(C)c(NC(=O)Cc2csc(C)n2)c(Cl)c1 | inconclusive: 39.8 µM [inhibitor, partial curve, poor fit]
5 | Cc1ccc(OCC(=O)Nc2nnc(SCc3cc(=O)c4ccccc4[nH]3)s2)cc1 | inactive
6 | CCCCOc1ccc(C(=O)Nc2cccc(-c3nc4cccnc4s3)c2)cc1 | inconclusive: 1.26 µM [inhibitor, full curve, poor fit]
7 | Cc1csc2nc(-c3cccc(NC(=O)C(C)C)c3)cn12 | inconclusive: 44.7 µM [inhibitor, partial curve, poor fit]
8 | CCOC(=O)C1CCN(S(=O)(=O)c2csc(C(N)=O)c2)CC1 | inconclusive: 1.78 µM [inhibitor, full curve, poor fit]
9 | COc1ccc(C(=O)NCC(c2ccc(N(C)C)cc2)N2CCc3ccccc32)c(OC)c1 (configuration not stated) | inconclusive: 31.6 µM [inhibitor, partial curve, poor fit]
10 | Cc1ccc(NC(=O)c2sc3nc4c(cc3c2N)CN(Cc2ccccc2)CC4)cc1 | inactive
11 | CN1CCN(C(CNC(=O)c2ccc(F)cc2)c2ccc3c(c2)OCO3)CC1 (configuration not stated) | inconclusive: 3.16 µM [inhibitor, full curve, poor fit]
12 | COc1ccc(OC)c(CNC(=O)c2c(C)oc3ncn(CC(C)C)c(=O)c23)c1 | inconclusive: 0.631 µM [inhibitor, partial curve, poor fit]
13 | CCc1ccc2ncc3c(-c4ccc(F)cc4)nn(CC(=O)NC4CCCCC4)c3c2c1 | inconclusive: 1 µM [inhibitor, full curve, poor fit]
14 | O=C(CSc1nc(=O)n(CCN2CCOCC2)c2c1CCC2)Nc1cccc(Cl)c1 | inactive
15 | CCN(CC)c1nn2c(=O)c(C(=O)NCCc3cccc(C)c3)cnc2s1 | inactive
16 | CC(C)C(=O)Nc1nnc(S(=O)(=O)N2CCc3ccccc32)s1 | inconclusive: 7.94 µM [inhibitor, partial curve, poor fit]
17 | Cc1cc2c(cc1S(=O)(=O)NCc1ccc(F)cc1)OCCN2C | inconclusive: 1 µM [inhibitor, full curve, poor fit]
18 | CCCCNc1nc2c(S(=O)(=O)c3ccc(Br)cc3)nnn2c2ccsc12 | inconclusive: 0.447 µM [inhibitor, full curve, poor fit]
19 | CCCn1c(=N)c(C(=O)NCC2CCCO2)cc2c(=O)n3cc(C)ccc3nc21 (configuration not stated) | inactive
20 | CCc1nn(CC(=O)NCc2ccccc2Cl)c(=O)c2cc3ccccc3n12 | inactive
21 | COc1ccc(C(=O)NCC(c2ccc(N(C)C)cc2)N2CCCC2)cc1 (configuration not stated) | inconclusive: 0.631 µM [inhibitor, full curve, poor fit]

Row | Compound | Potency
22 | COc1cc(OC)c2c(C)c(CC(=O)NCCc3ccccc3OC)c(=O)oc2c1 | inconclusive: 4.47 µM [inhibitor, partial curve]
23 | Cc1ccc(Cl)cc1-n1ncc2c(NC3CCCCC3)ncnc21 | inactive
24 | COc1ccccc1CNC(=O)C(=O)NCC(c1cccnc1)N1CCN(c2ccccc2)CC1 (configuration not stated) | inconclusive: 7.08 µM [inhibitor, partial curve, poor fit]
25 | COc1ccc(OC)c(C2CC(=O)Nc3c2c(=O)n(C)c2ncnn32)c1 (configuration not stated) | inconclusive: 7.08 µM [inhibitor, partial curve, poor fit]
26 | COc1ccc(OC)c(NC(=O)c2c(NCc3ccc(C)o3)sc3c2CCCCC3)c1 | inactive
27 | Cc1ccc(C)c(-c2nn(CC(=O)Nc3cc(F)ccc3F)c(=O)c3c2CCCC3)c1 | inconclusive: 39.8 µM [inhibitor, partial curve, poor fit]
28 | CCc1cccc(NC(=O)CSc2nccn2C)c1 | inactive
29 | CCOc1ccc(C2C(C(=O)Nc3ccc(OC)cc3)=C(C)Nc3nc(SCc4ccc(Cl)cc4)nn32)cc1 (configuration not stated) | inconclusive: 2.51 µM [inhibitor, partial curve, poor fit]
30 | Cc1c(Cl)cccc1NC(=O)c1ccc(NC(=O)N2CCSc3ncccc32)cc1 | inconclusive: 1 µM [inhibitor, full curve, poor fit]
31 | COC(=O)COc1ccc2oc(-c3ccc(OC)cc3)cc(=O)c2c1 | inconclusive: 0.447 µM [inhibitor, full curve, poor fit]
32 | Cc1ccc(NC(=O)CSc2nccn2Cc2ccco2)cc1Cl | inactive
33 | Cc1ccc(NC(=O)CSc2ncc(S(=O)(=O)c3ccc(C(C)C)cc3)c(=O)[nH]2)cc1C | inconclusive: 28.2 µM [inhibitor, single point]
34 | Cn1c(=O)c2cc(C(=O)NCCCN3CCN(c4cccc(Cl)c4)CC3)sc2c2ccccc21 | inactive
35 | CCS(=O)(=O)c1ccc(O)c(Nc2cc(C)nc(SC)n2)c1 | inconclusive: 1.78 µM [inhibitor, full curve, poor fit]
36 | COc1ccc2c(CNCc3cccs3)c(C(=O)O)n(Cc3ccc(C)cc3)c2c1 | inconclusive: 0.891 µM [inhibitor, partial curve, poor fit]
37 | O=C(Cn1ncc2c3ccccc3n(Cc3cccc(Cl)c3)c2c1=O)NCCCc1ccccc1 | inconclusive: 0.355 µM [inhibitor, full curve, poor fit]
38 | CSc1nc(-c2ccccc2Cl)nc2c1Cc1c(CO)cnc(C)c1O2 | inconclusive: 1.26 µM [inhibitor, full curve, poor fit]
39 | CC1=C(C(=O)Nc2ccccc2)C(c2cccs2)n2nc(SCc3ccccc3)nc2N1 (configuration not stated) | inconclusive: 0.199 µM [inhibitor, full curve, poor fit]
40 | O=C(NCc1ccccn1)c1nn(-c2ccccc2F)nc1CO | inconclusive: 31.6 µM [inhibitor, partial curve, poor fit]
41 | CC(C)c1ccc(/C=C(\C#N)c2nc(-c3ccc(O)cc3)cs2)cc1 | inconclusive: 3.16 µM [inhibitor, full curve, poor fit]
42 | Cc1ccc(C)c(S(=O)(=O)c2nnn3c2nc(N2CCCCC2)c2sccc23)c1 | inconclusive: 5.01 µM [inhibitor, partial curve, poor fit]

Some values from the list.
COc1cc(OC)c2c(C)c(CC(=O)NCCc3ccccc3OC)c(=O)oc2c1 | Potency: inconclusive: 4.47 µM [inhibitor, partial curve]
CC1=C(C(=O)Nc2ccccc2)C(c2cccs2)n2nc(SCc3ccccc3)nc2N1 (configuration not stated) | Potency: inconclusive: 0.199 µM [inhibitor, full curve, poor fit]

Quoted from above, entries 37 to 39
Row | Compound | Potency
37 | O=C(Cn1ncc2c3ccccc3n(Cc3cccc(Cl)c3)c2c1=O)NCCCc1ccccc1 | inconclusive: 0.355 µM [inhibitor, full curve, poor fit]
38 | CSc1nc(-c2ccccc2Cl)nc2c1Cc1c(CO)cnc(C)c1O2 | inconclusive: 1.26 µM [inhibitor, full curve, poor fit]
39 | CC1=C(C(=O)Nc2ccccc2)C(c2cccs2)n2nc(SCc3ccccc3)nc2N1 (configuration not stated) | inconclusive: 0.199 µM [inhibitor, full curve, poor fit]

Later entries

Row | Compound | Potency
43 | COc1ccc(-c2nc(S(=O)(=O)c3ccc(C)cc3)c(NCc3ccccc3)o2)cc1 | inconclusive: 0.251 µM [inhibitor, full curve, poor fit]
44 | Cc1ccc(Cn2c(=O)n(Cc3ccccc3Cl)c(=O)c3cccnc32)cc1 | inconclusive: 1.58 µM [inhibitor, partial curve, poor fit]
45 | CC(Sc1nc(-c2ccccc2)c(C#N)c(=O)[nH]1)C(=O)Nc1ccc(F)cc1 (configuration not stated) | inconclusive: 25.1 µM [inhibitor, partial curve, poor fit]
46 | COc1ccc(Cl)cc1NC(=O)CCCn1c(=O)c2cccn2c2cccnc21 | inconclusive: 1.12 µM [inhibitor, full curve, poor fit]
47 | CCC1CN(C(=O)NCc2ccc(F)cc2)c2ccccc2O1 (configuration not stated) | inconclusive: 8.91 µM [inhibitor, partial curve, poor fit]
48 | CCN(C(=O)NCc1noc2ccccc12)c1cc(C)ccc1C | inconclusive: 0.355 µM [inhibitor, partial curve, poor fit]
49 | Cc1ccc(S(=O)(=O)c2nnn3c2nc(Nc2ccc(C(C)C)cc2)c2sccc23)cc1C | inactive
50 | N#Cc1c(-n2ncnc2-c2ccc(Br)cc2)sc2c1CCCCC2 | inactive
51 | COc1ccc(CNC(=O)c2cc(-c3cccc(Cl)c3)on2)cc1 | inactive
52 | Cn1nc(C(=O)NCc2cccc(Cl)c2)c2c1-c1ccccc1SC2 | inconclusive: 1.78 µM [inhibitor, full curve, poor fit]
53 | O=C(Cn1cnc(S(=O)(=O)N2CCCC2)c1)Nc1cccc(F)c1 | inconclusive: 39.8 µM [inhibitor, partial curve, poor fit]
54 | Cc1ccc2onc(CC(=O)N3CCN(c4ccc(Cl)cc4)CC3)c2c1 | inconclusive: 7.94 µM [inhibitor, partial curve, poor fit]
55 | Cc1ccc(C2CC(=O)n3nc(-c4cccc(C)c4)nc3S2)cc1 (configuration not stated) | inconclusive: 39.8 µM [inhibitor, single point]
56 | Cc1cccc(Nc2nc3c(S(=O)(=O)c4ccc(Br)cc4)nnn3c3ccsc23)c1C | inconclusive: 1.78 µM [inhibitor, full curve, poor fit]
57 | COC(=O)Cc1c(C)c2cc3c(c(C)c2oc1=O)OCN(CCc1ccc(F)cc1)C3 | inactive
58 | Cc1ccc(N2C(=O)c3oc4cc(C)c(C)cc4c(=O)c3C2c2cccc(O)c2)nc1 (configuration not stated) | inconclusive: 39.8 µM [inhibitor, partial curve, poor fit]
59 | COc1cc(-c2nc3n(n2)C(c2ccc(F)cc2)C(C(N)=O)=C(C)N3)cc(OC)c1OC (configuration not stated) | inconclusive: 0.0794 µM [inhibitor, full curve, poor fit]
60 | Cn1c(=O)c2sccc2n2c(CCC(=O)Nc3ccc(F)cc3)nnc12 | inconclusive: 44.7 µM [inhibitor, partial curve, poor fit]
61 | Cc1ccc(Oc2nc3c(c(=O)n(Cc4ccccc4Cl)c(=O)n3C)n2C)cc1C | inconclusive: 44.7 µM [inhibitor, partial curve, poor fit]
62 | COc1cccc(CNC(=O)Cn2c(=O)oc3cc(S(=O)(=O)N4CCC(C)CC4)ccc32)c1 | inactive
